Values from PubChem BioAssay AID686937 (Drosophila RNAi Screening Center, 2013).
In all, the deposit lists about 23,000 reagents; this is a random part of those that have a named target and a result. 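Reduced-secretion tags in replicate 1 do not always agree with the z-scores; no criterion for assigning the tags was given.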 Names joined by + are all predicted targets of the reagent. Not all columns of the deposit are shown. Not given: the amount of reagent.

Purpose: 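Knock-downs that reduce output of a secreted reporter enzyme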 (primary screen)
Cell system: Drosophila S2 cells expressing secreted horseradish peroxidase
Reagent: long dsRNA against Drosophila genes
Duration: about 5.5 days (5 days dsRNA, then 12 h reporter induction)
Challenge: reporter expression induced after 5 days of dsRNA, read 12 h later; inducer not stated
Read-out: 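Chemiluminescent measurement of peroxidase in the medium 12 h after reporter induction, following 5 days of dsRNA, given as a z-score per plate; higher means more secretion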
Scale: z-score: higher = more reporter secreted into medium

{"target gene": "Acat2 (Acetyl-CoA acetyltransferase 2)", "dsRNA": "DRSC08630", "z-score, replicate 1": 0.4}
{"target gene": "CG15260", "dsRNA": "DRSC01977", "z-score, replicate 1": 0.49}
{"target gene": "CG31111", "dsRNA": "DRSC14649", "z-score, replicate 1": -0.34}
{"target gene": "cora (coracle)", "dsRNA": "DRSC07597", "z-score, replicate 1": 0.33}
{"target gene": "CG14756", "dsRNA": "DRSC06491", "z-score, replicate 1": -0.07}
{"target gene": "Ssadh (Succinic semialdehyde dehydrogenase)", "dsRNA": "DRSC15621", "z-score, replicate 1": 0.26}
{"target gene": "Ser6 (Serine protease 6)", "dsRNA": "DRSC20574", "z-score, replicate 1": 0.5}
{"target gene": "CG10527", "dsRNA": "DRSC04078", "z-score, replicate 1": 0.04}
{"target gene": "CG4597", "dsRNA": "DRSC10432", "z-score, replicate 1": 0.22}
{"target gene": "CR43096 + CG43060", "dsRNA": "DRSC12654", "z-score, replicate 1": 0.1}
{"target gene": "HIPP1 (HP1 and insulator partner protein 1)", "dsRNA": "DRSC11748", "z-score, replicate 1": 0.1}
{"target gene": "CG32582 (retired record)", "dsRNA": "DRSC19114", "z-score, replicate 1": -0.17}
{"target gene": "Mgat1", "dsRNA": "DRSC07463", "z-score, replicate 1": -1.56}
{"target gene": "CG4009", "dsRNA": "DRSC15536", "z-score, replicate 1": 0.18}
{"target gene": "CG4278", "dsRNA": "DRSC02741", "z-score, replicate 1": 0.06}
{"target gene": "CG31743 + CG34313", "dsRNA": "DRSC02781", "z-score, replicate 1": 0.13}
{"target gene": "CG31743 + CG34313", "dsRNA": "DRSC02782", "z-score, replicate 1": 0.21}
{"target gene": "fon (fondue)", "dsRNA": "DRSC02507", "z-score, replicate 1": 0.37}
{"target gene": "Sc2", "dsRNA": "DRSC08162", "z-score, replicate 1": 0.51}
{"target gene": "fok (fledgling of Klp38B)", "dsRNA": "DRSC02103", "z-score, replicate 1": 0.43}
{"target gene": "GstZ1 (Glutathione S transferase Z1)", "dsRNA": "DRSC16478", "z-score, replicate 1": -0.23}
{"target gene": "Nepl6 (Neprilysin-like 6)", "dsRNA": "DRSC03242", "z-score, replicate 1": 0.84}
{"target gene": "Abca3 (ATP binding cassette subfamily A member 3)", "dsRNA": "DRSC20546", "z-score, replicate 1": 0.39}
{"target gene": "CG6454", "dsRNA": "DRSC16044", "z-score, replicate 1": 0.34}
{"target gene": "PIG-S (Phosphatidylinositol glycan anchor biosynthesis class S)", "dsRNA": "DRSC14643", "z-score, replicate 1": 0.19}
{"target gene": "PIG-S (Phosphatidylinositol glycan anchor biosynthesis class S)", "dsRNA": "DRSC15388", "z-score, replicate 1": 0.26}
{"target gene": "PIG-S (Phosphatidylinositol glycan anchor biosynthesis class S)", "dsRNA": "DRSC15952", "z-score, replicate 1": 0.08}
{"target gene": "CG18088", "dsRNA": "DRSC02654", "z-score, replicate 1": 0.39}
{"target gene": "CG5103", "dsRNA": "DRSC10481", "z-score, replicate 1": 0.3}
{"target gene": "CG1907", "dsRNA": "DRSC15399", "z-score, replicate 1": 0}
{"target gene": "CG32259", "dsRNA": "DRSC08082", "z-score, replicate 1": -0.36}
{"target gene": "btsz (bitesize)", "dsRNA": "DRSC14982", "z-score, replicate 1": -0.04}
{"target gene": "btsz (bitesize)", "dsRNA": "DRSC15222", "z-score, replicate 1": -2.46}
{"target gene": "btsz (bitesize)", "dsRNA": "DRSC15320", "z-score, replicate 1": -0.26}
{"target gene": "btsz (bitesize)", "dsRNA": "DRSC16231", "z-score, replicate 1": 0.18}
{"target gene": "CG30393", "dsRNA": "DRSC04253", "z-score, replicate 1": 0.42}
{"target gene": "CG43104 (retired record)", "dsRNA": "DRSC05624", "z-score, replicate 1": 0.67}
{"target gene": "Amy-d (Amylase distal)", "dsRNA": "DRSC05919", "z-score, replicate 1": 0.26}
{"target gene": "CG15056", "dsRNA": "DRSC19630", "z-score, replicate 1": -0.03}
{"target gene": "trsn (translin)", "dsRNA": "DRSC06078", "z-score, replicate 1": 0.53}
{"target gene": "TwdlS (TweedleS)", "dsRNA": "DRSC14737", "z-score, replicate 1": 0.13}
{"target gene": "CG11122", "dsRNA": "DRSC19382", "z-score, replicate 1": 0.15}
{"target gene": "CG18476", "dsRNA": "DRSC15281", "z-score, replicate 1": 0.05}
{"target gene": "nanos", "dsRNA": "DRSC17018", "z-score, replicate 1": 0.31}
{"target gene": "Bem46", "dsRNA": "DRSC00275", "z-score, replicate 1": 0.71}
{"target gene": "CG11666", "dsRNA": "DRSC22379", "z-score, replicate 1": 0.48}
{"target gene": "Gar1 (Gar1 ribonucleoprotein)", "dsRNA": "DRSC04441", "z-score, replicate 1": -0.42}
{"target gene": "dbr (debra)", "dsRNA": "DRSC00274", "z-score, replicate 1": 0.4}
{"target gene": "CG15824", "dsRNA": "DRSC00473", "z-score, replicate 1": 0.12}
{"target gene": "sc (scute)", "dsRNA": "DRSC18830", "z-score, replicate 1": 0.41}
{"target gene": "Tsp42A (Tetraspanin 42A)", "dsRNA": "DRSC04862", "z-score, replicate 1": 0.37}

Records listed so far whose gene name begins with F or f (2):
{"target gene": "fon (fondue)", "dsRNA": "DRSC02507", "z-score, replicate 1": 0.37}
{"target gene": "fok (fledgling of Klp38B)", "dsRNA": "DRSC02103", "z-score, replicate 1": 0.43}
